Assay results published in US20250145665A1, “MACROCYCLIC PEPTIDES USEFUL AS MODULATORS OF TNF ALPHA” (Bristol-Myers Squibb Company, priority 2023, published 2025).
Read-outs that look alike come from different tables or passages of the source. Some results were stated once for a whole list of compounds, not compound by compound. Starred links: 1 amine or outer side, 2 acyl side, 3 side chain; linkers in the order of their positions; H or OH if unused. Positions of bridges follow the written chain, without caps; N, C: chain ends. Non-standard residues stand in square brackets, D forms with d. Residues, ends and D or L forms follow the SMILES beside them. *: point of attachment. X5 = Cn1nc(C(=O)Nc2ccc(-c3ccc(C[C@H](N[*:1])C(=O)[*:2])cc3)cc2)c2ccccc21; dArg(Nω-CH2C6H4-3-CH2Gua) = N=C(N)NCc1cccc(CNC(=N)NCCC[C@@H](N)C(=O)O)c1; dArg(ω-(2S)-2,3-diOHpropyl) = N=C(NCCC[C@@H](N)C(=O)O)NC[C@H](O)CO; Bip(4'-NH) = O=C([C@H](Cc1ccc(-c2ccc(N[*:3])cc2)cc1)N[*:1])[*:2]; Bip(4'-CONHMe) = CNC(=O)c1ccc(-c2ccc(C[C@H](N)C(=O)O)cc2)cc1; Indazole3carbonyl(1-CH2COOH) = O=C(O)Cn1nc(C(=O)*)c2ccccc21; X54 = N=C(NCCC[C@@H](N[*:1])C(=O)[*:2])NCc1cccc(-n2ccnc2)c1; Bip(4'-COOH) = N[C@@H](Cc1ccc(-c2ccc(C(=O)O)cc2)cc1)C(=O)O; X53 = CC(C)(C)n1nnc(CNC(=N)NCCC[C@@H](N[*:1])C(=O)[*:2])n1; Indole3carbonyl(1-CH2COOH) = O=C(O)Cn1cc(C(=O)*)c2ccccc21; X30 = N#Cc1ccc(CCNC(=N)NCCC[C@@H](N[*:1])C(=O)[*:2])cc1; X68 = N=C(NCCC[C@@H](N[*:1])C(=O)[*:2])NCc1ccc(O)c(O)c1; X28 = N=C(NCCC[C@@H](N[*:1])C(=O)[*:2])NCc1ccc(CN)cc1; dArg(ω-Bn) = N=C(NCCC[C@@H](N)C(=O)O)NCc1ccccc1; Ala(morpholin-4-yl) = N[C@@H](CN1CCOCC1)C(=O)O; Phe(3-CONH2) = NC(=O)c1cccc(C[C@H](N)C(=O)O)c1; X12 = N=C(NCCO)NCCC[C@@H](N[*:1])C(=O)[*:2]; Bip = N[C@@H](Cc1ccc(-c2ccccc2)cc1)C(=O)O; 2Pal = N[C@@H](Cc1ccccn1)C(=O)O; 2Thi = N[C@@H](Cc1cccs1)C(=O)O; Cha = N[C@@H](CC1CCCCC1)C(=O)O; Sar = CNCC(=O)O

Chains of the proteins cited; added tags and fusions are not shown. Residues count along the entry.
UniProt P01375, 77-233 limits assumed: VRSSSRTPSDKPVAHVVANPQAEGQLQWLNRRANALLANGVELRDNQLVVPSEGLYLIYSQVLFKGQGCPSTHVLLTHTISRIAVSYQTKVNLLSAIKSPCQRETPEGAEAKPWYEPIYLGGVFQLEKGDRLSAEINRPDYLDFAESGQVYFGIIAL

Biological target: TNFα (Homo sapiens, UniProt P01375)
Test: TNF-Induced HEK-Blue Assay
Assay type: cell-based
Conditions: read-out: IC50 values measured in the TNF induced HEK-Blue assay
[1] = summary statement for all examples

Row | SMILES | IC50 [1] | IC50
1 | CC(C)C[C@@H]1NC(=O)[C@H](Cc2cccs2)NC(=O)[C@H](C(C)C)NC(=O)[C@@H]2CCCN2C(=O)[C@H](C(C)C)NC(=O)[C@@H](CCCNC(=N)NCc2ccccc2)NC(=O)[C@H](CC(=O)O)NC(=O)[C@H](Cc2ccccn2)NC(=O)CN(C)C(=O)[C@H](Cc2ccc(-c3ccc(NC(=O)c4nn(CC(=O)O)c5ccccc45)cc3)cc2)NC(=O)[C@H](Cc2ccc(-c3ccccc3)cc2)NC(=O)[C@H](CN2CCOCC2)NC(=O)CSC[C@@H](C(=O)NCC(N)=O)NC1=O [Example 638] ({CH2CO}-[Ala(morpholin-4-yl)][Bip][Bip(4'-NH)](Indazole3carbonyl(1-CH2COOH))[Sar][2Pal]D[dArg(ω-Bn)]VPV[2Thi]LCG-NH2; thioether N-13) | ≤ 25 µM | 
2 | CNC(=O)c1ccc(-c2ccc(C[C@@H]3NC(=O)[C@H](CN4CCOCC4)NC(=O)CSC[C@@H](C(=O)NCC(N)=O)NC(=O)[C@H](CC(C)C)NC(=O)[C@H](CCCNC(=N)N)NC(=O)[C@H](C(C)C)NC(=O)[C@@H]4CCCN4C(=O)[C@H](C(C)C)NC(=O)[C@@H](CCCNC(=N)NCCc4ccc(C#N)cc4)NC(=O)[C@H](CC(=O)O)NC(=O)[C@@H]4CCCN4C(=O)CN(C)C(=O)[C@H](Cc4ccc(-c5ccc(NC(=O)c6nn(CC(=O)O)c7ccccc67)cc5)cc4)NC3=O)cc2)cc1 [Example 430] ({CH2CO}-[Ala(morpholin-4-yl)][Bip(4'-CONHMe)][Bip(4'-NH)](Indazole3carbonyl(1-CH2COOH))[Sar]PD[X30]VPVRLCG-NH2; thioether N-13) | ≤ 25 µM | 
3 | CC(C)C[C@@H]1NC(=O)[C@H](Cc2cccc(C(N)=O)c2)NC(=O)[C@H](C(C)C)NC(=O)[C@@H]2CCCN2C(=O)[C@H](C(C)C)NC(=O)[C@@H](CCCNC(=N)NCc2ccccc2)NC(=O)[C@H](CC(=O)O)NC(=O)[C@@H]2CCCN2C(=O)CN(C)C(=O)[C@H](Cc2ccc(-c3ccc(NC(=O)c4cn(CC(=O)O)c5ccccc45)cc3)cc2)NC(=O)[C@H](Cc2ccc(-c3ccccc3)cc2)NC(=O)[C@H](CN2CCOCC2)NC(=O)CSC[C@@H](C(=O)NCC(N)=O)NC1=O [Example 535] ({CH2CO}-[Ala(morpholin-4-yl)][Bip][Bip(4'-NH)](Indole3carbonyl(1-CH2COOH))[Sar]PD[dArg(ω-Bn)]VPV[Phe(3-CONH2)]LCG-NH2; thioether N-13) | ≤ 25 µM | 
4 | CC(C)C[C@@H]1NC(=O)[C@H](CCCNC(=N)N)NC(=O)[C@H](C(C)C)NC(=O)[C@@H]2CCCN2C(=O)[C@H](C(C)C)NC(=O)[C@@H](CCCNC(=N)NCc2nnn(C(C)(C)C)n2)NC(=O)[C@H](CC(=O)O)NC(=O)[C@@H]2CCCN2C(=O)CN(C)C(=O)[C@H](Cc2ccc(-c3ccc(NC(=O)c4nn(CC(=O)O)c5ccccc45)cc3)cc2)NC(=O)[C@H](Cc2ccc(-c3ccccc3)cc2)NC(=O)[C@H](CN2CCOCC2)NC(=O)CSC[C@@H](C(=O)NCC(N)=O)NC1=O [Example 510] ({CH2CO}-[Ala(morpholin-4-yl)][Bip][Bip(4'-NH)](Indazole3carbonyl(1-CH2COOH))[Sar]PD[X53]VPVRLCG-NH2; thioether N-13) | ≤ 25 µM | 
5 | CC(C)C[C@@H]1NC(=O)[C@H](CCCNC(=N)N)NC(=O)[C@H](C(C)C)NC(=O)[C@@H]2CCCN2C(=O)[C@H](C(C)C)NC(=O)[C@@H](CCCNC(=N)NCCO)NC(=O)[C@H](CC(=O)O)NC(=O)[C@@H]2CCCN2C(=O)CN(C)C(=O)[C@H](Cc2ccc(-c3ccc(NC(=O)c4nn(CC(=O)O)c5ccccc45)cc3)cc2)NC(=O)[C@H](Cc2ccc(-c3ccccc3)cc2)NC(=O)[C@H](CN2CCOCC2)NC(=O)CSC[C@@H](C(=O)NCC(N)=O)NC1=O [Example 387] ({CH2CO}-[Ala(morpholin-4-yl)][Bip][Bip(4'-NH)](Indazole3carbonyl(1-CH2COOH))[Sar]PD[X12]VPVRLCG-NH2; thioether N-13) | ≤ 25 µM | 
6 | CC(C)C[C@@H]1NC(=O)[C@H](CCCNC(=N)N)NC(=O)[C@H](C(C)C)NC(=O)[C@@H]2CCCN2C(=O)[C@H](C(C)C)NC(=O)[C@@H](CCCNC(=N)NCc2ccc(O)c(O)c2)NC(=O)[C@H](CC(=O)O)NC(=O)[C@@H]2CCCN2C(=O)CN(C)C(=O)[C@H](Cc2ccc(-c3ccc(NC(=O)c4nn(CC(=O)O)c5ccccc45)cc3)cc2)NC(=O)[C@H](Cc2ccc(-c3ccccc3)cc2)NC(=O)[C@H](CN2CCOCC2)NC(=O)CSC[C@@H](C(=O)NCC(N)=O)NC1=O [Example 635] ({CH2CO}-[Ala(morpholin-4-yl)][Bip][Bip(4'-NH)](Indazole3carbonyl(1-CH2COOH))[Sar]PD[X68]VPVRLCG-NH2; thioether N-13) | ≤ 25 µM | 
7 | CC(C)C[C@@H]1NC(=O)[C@H](CCCNC(=N)N)NC(=O)[C@H](C(C)C)NC(=O)[C@@H]2CCCN2C(=O)[C@H](C(C)C)NC(=O)[C@@H](CCCNC(=N)NCc2cccc(-n3ccnc3)c2)NC(=O)[C@H](CC(=O)O)NC(=O)[C@@H]2CCCN2C(=O)CN(C)C(=O)[C@H](Cc2ccc(-c3ccc(NC(=O)c4nn(CC(=O)O)c5ccccc45)cc3)cc2)NC(=O)[C@H](Cc2ccc(-c3ccccc3)cc2)NC(=O)[C@H](CN2CCOCC2)NC(=O)CSC[C@@H](C(=O)NCC(N)=O)NC1=O [Example 470] ({CH2CO}-[Ala(morpholin-4-yl)][Bip][Bip(4'-NH)](Indazole3carbonyl(1-CH2COOH))[Sar]PD[X54]VPVRLCG-NH2; thioether N-13) | ≤ 25 µM | 
8 | CC(C)C[C@@H]1NC(=O)[C@H](CCCNC(=N)N)NC(=O)[C@H](C(C)C)NC(=O)[C@@H]2CCCN2C(=O)[C@H](C(C)C)NC(=O)[C@@H](CCCNC(=N)NCc2ccc(CN)cc2)NC(=O)[C@H](CC(=O)O)NC(=O)[C@@H]2CCCN2C(=O)CN(C)C(=O)[C@H](Cc2ccc(-c3ccc(NC(=O)c4nn(CC(=O)O)c5ccccc45)cc3)cc2)NC(=O)[C@H](Cc2ccc(-c3ccccc3)cc2)NC(=O)[C@H](CN2CCOCC2)NC(=O)CSC[C@@H](C(=O)NCC(N)=O)NC1=O [Example 501] ({CH2CO}-[Ala(morpholin-4-yl)][Bip][Bip(4'-NH)](Indazole3carbonyl(1-CH2COOH))[Sar]PD[X28]VPVRLCG-NH2; thioether N-13) | ≤ 25 µM | 
9 | CC(C)C[C@@H]1NC(=O)[C@H](Cc2cccs2)NC(=O)[C@H](C(C)C)NC(=O)[C@@H]2CCCN2C(=O)[C@H](C(C)C)NC(=O)[C@@H](CCCNC(=N)NCc2cccc(CNC(=N)N)c2)NC(=O)[C@H](CC(=O)O)NC(=O)[C@H](Cc2ccccn2)NC(=O)CN(C)C(=O)[C@H](Cc2ccc(-c3ccc(NC(=O)c4nn(CC(=O)O)c5ccccc45)cc3)cc2)NC(=O)[C@H](Cc2ccc(-c3ccccc3)cc2)NC(=O)[C@H](CN2CCOCC2)NC(=O)CSC[C@@H](C(=O)NCC(N)=O)NC1=O [Example 623] ({CH2CO}-[Ala(morpholin-4-yl)][Bip][Bip(4'-NH)](Indazole3carbonyl(1-CH2COOH))[Sar][2Pal]D[dArg(Nω-CH2C6H4-3-CH2Gua)]VPV[2Thi]LCG-NH2; thioether N-13) | ≤ 25 µM | 
10 | CC(C)C[C@@H]1NC(=O)[C@H](Cc2ccccn2)NC(=O)[C@H](C(C)C)NC(=O)[C@@H]2CCCN2C(=O)[C@H](C(C)C)NC(=O)[C@@H](CCCNC(=N)N)NC(=O)[C@H](CC(=O)O)NC(=O)[C@H](Cc2ccc(O)cc2)NC(=O)CN(C)C(=O)[C@H](Cc2ccc(-c3ccc(NC(=O)c4nn(CC(=O)O)c5ccccc45)cc3)cc2)NC(=O)[C@H](Cc2ccc(-c3ccc(C(=O)O)cc3)cc2)NC(=O)[C@H](CC2CCCCC2)NC(=O)CSC[C@@H](C(=O)NCC(N)=O)NC1=O [Example 362] ({CH2CO}-[Cha][Bip(4'-COOH)][Bip(4'-NH)](Indazole3carbonyl(1-CH2COOH))[Sar]YD[dR]VPV[2Pal]LCG-NH2; thioether N-13) | ≤ 25 µM | 
11 | CC(C)C[C@@H]1NC(=O)[C@H](Cc2cccc(C(N)=O)c2)NC(=O)[C@H](C(C)C)NC(=O)[C@@H]2CCCN2C(=O)[C@H](C(C)C)NC(=O)[C@@H](CCCNC(=N)NC[C@H](O)CO)NC(=O)[C@H](CC(=O)O)NC(=O)[C@H](Cc2ccc(O)cc2)NC(=O)CN(C)C(=O)[C@H](Cc2ccc(-c3ccc(NC(=O)c4cn(CC(=O)O)c5ccccc45)cc3)cc2)NC(=O)[C@H](Cc2ccc(-c3ccccc3)cc2)NC(=O)[C@H](CN2CCOCC2)NC(=O)CSC[C@@H](C(=O)NCC(N)=O)NC1=O [Example 547] ({CH2CO}-[Ala(morpholin-4-yl)][Bip][Bip(4'-NH)](Indole3carbonyl(1-CH2COOH))[Sar]YD[dArg(ω-(2S)-2,3-diOHpropyl)]VPV[Phe(3-CONH2)]LCG-NH2; thioether N-13) | ≤ 25 µM | 
12 | CC(C)C[C@@H]1NC(=O)[C@H](CCCNC(=N)N)NC(=O)[C@H](C(C)C)NC(=O)[C@@H]2CCCN2C(=O)[C@H](C(C)C)NC(=O)[C@@H](CCCNC(=N)NCc2ccccc2)NC(=O)[C@H](CC(=O)O)NC(=O)[C@@H]2CCCN2C(=O)CN(C)C(=O)[C@H](Cc2ccc(-c3ccc(NC(=O)c4nn(C)c5ccccc45)cc3)cc2)NC(=O)[C@H](Cc2ccc(-c3ccccc3)cc2)NC(=O)[C@H](CN2CCOCC2)NC(=O)CSC[C@@H](C(=O)NCC(N)=O)NC1=O [Example 471] ({CH2CO}-[Ala(morpholin-4-yl)][Bip][X5][Sar]PD[dArg(ω-Bn)]VPVRLCG-NH2; thioether N-13) |  | ≤ 25 µM
13 | CC(C)C[C@@H]1NC(=O)[C@H](CCCNC(=N)N)NC(=O)[C@H](C(C)C)NC(=O)[C@@H]2CCCN2C(=O)[C@H](C(C)C)NC(=O)[C@@H](CCCNC(=N)NCc2cccc(CNC(=N)N)c2)NC(=O)[C@H](CC(=O)O)NC(=O)[C@@H]2CCCN2C(=O)CN(C)C(=O)[C@H](Cc2ccc(-c3ccc(NC(=O)c4cn(CC(=O)O)c5ccccc45)cc3)cc2)NC(=O)[C@H](Cc2ccc(-c3ccccc3)cc2)NC(=O)[C@H](CN2CCOCC2)NC(=O)CSC[C@@H](C(=O)NCC(N)=O)NC1=O [Example 569] ({CH2CO}-[Ala(morpholin-4-yl)][Bip][Bip(4'-NH)](Indole3carbonyl(1-CH2COOH))[Sar]PD[dArg(Nω-CH2C6H4-3-CH2Gua)]VPVRLCG-NH2; thioether N-13) | ≤ 25 µM | 
